In one assay the target is T1, GST-TC45 (UniProt P17706).
T1 sequence: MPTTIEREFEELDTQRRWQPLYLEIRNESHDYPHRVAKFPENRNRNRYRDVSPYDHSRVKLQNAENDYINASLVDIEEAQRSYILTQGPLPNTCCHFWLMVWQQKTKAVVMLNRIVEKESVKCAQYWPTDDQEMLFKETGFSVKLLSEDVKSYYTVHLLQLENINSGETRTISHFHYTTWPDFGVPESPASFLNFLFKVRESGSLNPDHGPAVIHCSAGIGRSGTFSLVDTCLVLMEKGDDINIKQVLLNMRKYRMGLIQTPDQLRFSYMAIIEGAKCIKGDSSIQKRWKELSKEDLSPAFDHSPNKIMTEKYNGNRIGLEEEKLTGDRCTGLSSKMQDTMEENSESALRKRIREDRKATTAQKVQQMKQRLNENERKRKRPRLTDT
The experiment in a line: pull-down.

The chains behind the UniProt entries cited, without tags or fusion partners. Where a name states a change or a piece, a line headed by the entry shows the natural chain unless it says otherwise. Residues count along the entry.
UniProt Q04206, whole entry: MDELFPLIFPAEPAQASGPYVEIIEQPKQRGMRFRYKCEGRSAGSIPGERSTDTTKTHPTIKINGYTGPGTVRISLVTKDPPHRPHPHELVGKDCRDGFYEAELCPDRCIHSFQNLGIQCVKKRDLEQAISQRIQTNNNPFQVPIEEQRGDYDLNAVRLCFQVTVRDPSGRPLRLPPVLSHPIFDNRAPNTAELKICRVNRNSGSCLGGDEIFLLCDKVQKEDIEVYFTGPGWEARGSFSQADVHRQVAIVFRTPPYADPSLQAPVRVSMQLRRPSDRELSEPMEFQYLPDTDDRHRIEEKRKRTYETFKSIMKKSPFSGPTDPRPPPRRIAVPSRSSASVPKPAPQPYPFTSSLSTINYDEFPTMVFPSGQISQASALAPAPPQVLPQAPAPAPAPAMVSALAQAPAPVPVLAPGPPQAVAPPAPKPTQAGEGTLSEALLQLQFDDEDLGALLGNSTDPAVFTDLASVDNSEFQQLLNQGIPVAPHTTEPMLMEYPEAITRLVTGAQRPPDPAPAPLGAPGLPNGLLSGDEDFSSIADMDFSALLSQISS
UniProt Q04206, 1-90: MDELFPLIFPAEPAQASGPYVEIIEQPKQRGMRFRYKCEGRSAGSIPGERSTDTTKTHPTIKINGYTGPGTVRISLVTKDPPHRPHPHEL

Assay [1] addresses T2, HA-TC45 (UniProt P17706).
T2 sequence: T1 sequence
Briefly: co-IP.

Assay [2] deals with T3, Myc-GdX (UniProt P11441).
T3 sequence: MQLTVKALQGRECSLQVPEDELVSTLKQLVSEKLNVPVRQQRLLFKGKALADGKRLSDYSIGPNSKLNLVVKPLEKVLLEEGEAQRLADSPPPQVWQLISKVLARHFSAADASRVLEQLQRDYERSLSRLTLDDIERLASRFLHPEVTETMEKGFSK
Briefly: co-IP.

Assay [3] deals with T2, HA-TC45. Briefly: co-IP. The source holds these as a separate data set.
The target of a further assay is Flag-p65 (UniProt Q04206). The experiment in a line: co-IP.
The target of assay [4] is T3, Myc-GdX. Briefly: co-IP. This is another data set of the same source.
For a further assay, the target named is T4, Flag-tagged IKKα (UniProt O15111).
T4 sequence: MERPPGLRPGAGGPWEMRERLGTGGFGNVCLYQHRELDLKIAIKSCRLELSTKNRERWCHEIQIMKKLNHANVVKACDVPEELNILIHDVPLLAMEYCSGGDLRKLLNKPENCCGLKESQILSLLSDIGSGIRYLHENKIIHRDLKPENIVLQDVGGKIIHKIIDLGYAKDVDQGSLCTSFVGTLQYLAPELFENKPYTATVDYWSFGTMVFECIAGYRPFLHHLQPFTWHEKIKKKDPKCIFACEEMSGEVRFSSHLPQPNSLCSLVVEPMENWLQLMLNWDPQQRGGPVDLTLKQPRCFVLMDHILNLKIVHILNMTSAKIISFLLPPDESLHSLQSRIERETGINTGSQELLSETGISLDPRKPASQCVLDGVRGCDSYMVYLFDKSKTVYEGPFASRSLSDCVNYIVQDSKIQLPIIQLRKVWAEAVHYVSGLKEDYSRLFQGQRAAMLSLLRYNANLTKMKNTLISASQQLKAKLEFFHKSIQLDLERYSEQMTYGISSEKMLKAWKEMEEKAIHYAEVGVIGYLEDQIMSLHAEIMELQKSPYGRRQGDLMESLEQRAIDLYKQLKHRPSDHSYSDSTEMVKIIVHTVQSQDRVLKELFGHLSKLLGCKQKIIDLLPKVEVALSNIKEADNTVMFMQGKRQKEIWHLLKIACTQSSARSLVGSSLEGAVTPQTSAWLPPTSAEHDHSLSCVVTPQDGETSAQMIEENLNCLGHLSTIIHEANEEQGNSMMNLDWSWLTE
The experiment in a line: co-IP.

For the next assay, the target named is T5, Flag-tagged IKKβ (UniProt O14920).
T5 sequence: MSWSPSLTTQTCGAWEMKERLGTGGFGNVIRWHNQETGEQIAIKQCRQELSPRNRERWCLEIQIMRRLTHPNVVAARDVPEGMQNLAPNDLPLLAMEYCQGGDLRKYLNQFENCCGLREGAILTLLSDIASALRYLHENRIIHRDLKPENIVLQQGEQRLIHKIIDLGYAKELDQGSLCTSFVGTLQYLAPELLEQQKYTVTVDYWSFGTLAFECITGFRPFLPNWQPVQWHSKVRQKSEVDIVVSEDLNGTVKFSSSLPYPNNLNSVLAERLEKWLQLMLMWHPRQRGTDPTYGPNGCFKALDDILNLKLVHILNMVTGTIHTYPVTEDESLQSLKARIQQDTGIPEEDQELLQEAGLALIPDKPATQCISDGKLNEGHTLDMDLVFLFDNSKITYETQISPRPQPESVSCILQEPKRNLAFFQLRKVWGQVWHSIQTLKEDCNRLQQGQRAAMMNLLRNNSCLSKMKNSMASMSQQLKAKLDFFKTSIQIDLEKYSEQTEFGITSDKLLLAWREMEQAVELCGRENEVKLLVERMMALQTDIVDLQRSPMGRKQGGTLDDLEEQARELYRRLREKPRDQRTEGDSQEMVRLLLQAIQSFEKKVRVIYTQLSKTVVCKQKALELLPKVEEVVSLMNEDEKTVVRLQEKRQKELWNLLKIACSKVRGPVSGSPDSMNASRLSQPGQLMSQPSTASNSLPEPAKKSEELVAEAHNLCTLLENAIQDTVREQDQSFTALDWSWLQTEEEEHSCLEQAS
Briefly: co-IP.

The next assay addresses T6, Flag-tagged IKKε (UniProt Q14164).
T6 sequence: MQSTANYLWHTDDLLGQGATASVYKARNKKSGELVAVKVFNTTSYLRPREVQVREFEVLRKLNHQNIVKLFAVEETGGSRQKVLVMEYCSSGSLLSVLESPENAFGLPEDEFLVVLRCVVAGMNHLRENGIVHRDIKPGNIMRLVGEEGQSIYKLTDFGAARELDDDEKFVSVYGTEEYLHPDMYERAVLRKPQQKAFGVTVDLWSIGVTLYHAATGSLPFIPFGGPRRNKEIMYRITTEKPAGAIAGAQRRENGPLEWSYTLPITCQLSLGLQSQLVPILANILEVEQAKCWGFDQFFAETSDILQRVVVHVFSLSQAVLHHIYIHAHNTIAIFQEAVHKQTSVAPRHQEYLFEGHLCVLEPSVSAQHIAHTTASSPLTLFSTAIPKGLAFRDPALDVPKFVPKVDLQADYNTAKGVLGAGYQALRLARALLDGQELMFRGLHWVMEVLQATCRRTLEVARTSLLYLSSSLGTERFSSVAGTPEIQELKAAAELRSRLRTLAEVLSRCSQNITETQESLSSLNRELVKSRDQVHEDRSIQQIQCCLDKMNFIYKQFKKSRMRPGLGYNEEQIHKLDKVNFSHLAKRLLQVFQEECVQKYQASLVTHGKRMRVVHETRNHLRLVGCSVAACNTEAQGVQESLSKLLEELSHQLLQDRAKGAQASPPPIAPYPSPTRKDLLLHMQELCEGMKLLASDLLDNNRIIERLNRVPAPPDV
The experiment in a line: co-IP.

In the next assay the target is T7, Flag-tagged WIP1 (UniProt O15297).
T7 sequence: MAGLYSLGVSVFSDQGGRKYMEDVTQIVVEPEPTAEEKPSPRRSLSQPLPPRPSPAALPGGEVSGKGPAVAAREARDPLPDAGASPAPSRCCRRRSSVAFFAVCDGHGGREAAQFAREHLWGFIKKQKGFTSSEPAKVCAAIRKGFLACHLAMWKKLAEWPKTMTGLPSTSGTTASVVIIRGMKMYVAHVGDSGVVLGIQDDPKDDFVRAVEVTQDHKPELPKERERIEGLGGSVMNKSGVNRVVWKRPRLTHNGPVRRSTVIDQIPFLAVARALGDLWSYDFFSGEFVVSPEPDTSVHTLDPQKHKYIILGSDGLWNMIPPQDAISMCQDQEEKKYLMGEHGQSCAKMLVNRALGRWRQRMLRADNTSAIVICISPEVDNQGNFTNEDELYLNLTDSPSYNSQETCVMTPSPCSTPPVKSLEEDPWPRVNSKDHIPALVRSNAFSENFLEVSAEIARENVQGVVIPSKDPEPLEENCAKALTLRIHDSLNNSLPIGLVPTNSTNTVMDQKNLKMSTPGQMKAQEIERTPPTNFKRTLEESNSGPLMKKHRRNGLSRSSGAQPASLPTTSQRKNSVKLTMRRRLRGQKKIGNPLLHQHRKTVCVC
The experiment in a line: co-IP.

Assay [5] deals with T2, HA-TC45. The experiment in a line: co-IP. The source holds these as a separate data set.

Like-named read-outs stand apart in the source and are kept apart here. These are yes or no findings as the source states them, for the method shown. In cells and extracts the contact can be indirect. Some binding calls cover weakened binding; strength is not graded here. Where a sequence is shown, tags or fusion partners need not be part of it.

On to Flag-p65 (from UniProt Q04206 1-551), for which the binding entry with GST-TC45 is reported as “binds”; with HA-TC45 [1] it was “binds”; with Myc-GdX [2], “no binding”; with HA-TC45 [3], “binds”.
Consider “Flag-p65-n6 (from UniProt Q04206 1-90) (domain or fragment)”, for which the binding entry in the assay with HA-TC45 [3] is on record as “no binding”.
On the same count and under the same terms, for “Flag-tagged p65(Y100F) (from UniProt Q04206 1-551)” the value was “no binding”.
Same read-out and setting: for “Flag-tagged p65(Y152F) (from UniProt Q04206 1-551)” the value was “binds”.
Turning to “endogenous p65 protein (293T cells) (from UniProt Q04206 1-551)”, the binding entry with HA-TC45 [3] is on record as “binds”.

B1: HA-TC45 (enzyme, UniProt P17706-2 1-387)
chain: T1 sequence
Regarding B1, the binding entry in the assay with Flag-p65 and with Myc-GdX [4] was “binds” in each case.

B2: Myc-GdX (protein, UniProt P11441 1-157)
chain: T3 sequence
For the molecule B2, the binding entry is on record as “no binding” with Flag-p65; “no binding” in the assay with Flag-tagged IKKα; “no binding” in the assay with Flag-tagged IKKβ; “no binding” with Flag-tagged IKKε; “no binding” in the assay with Flag-tagged WIP1; “binds” in the assay with HA-TC45 [5].

Source of the values: article doi:10.1101/376103.
